Article doi:10.1101/2022.05.09.490802

Tested on: Iron-responsive protein (IRP)
Test: EMSA

Sequence	binding result (tRNA present, competed by 1 uM unlabeled IRE RNA)	binding result
UCCUGCUUCAACAGUGCUUGGACGGAAC [IRE RNA 28-mer]	binds	–
GACGCTGCCGAATTCTACCAGTGCCTTGCTAGGACATCTTTGCCCACCTGCAGGTTCACCC [60-mer ssDNA (EMSA1)]	–	no binding

Read-outs that look alike come from different tables or passages of the source. For at least one entry, the source does not settle the construct or the ends of the probe. A negative result means that nothing was seen under these conditions. At least one verdict was read from the data and is not stated in words by the source.
